Measurements reported in PubChem BioAssay AID1159578 (Peter MacCallum Cancer Centre, 2015)
Purpose: 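Knock-downs that alter how fast lymphatic endothelial cells migrate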 (primary screen). Cells: human lymphatic endothelial cells. Knock-down reagent: siRNA pool against human genes, 40 nM. Duration: 48 h after transfection. Measurement: 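Cells stained with dye and imaged after a scratch; covered wound area and nuclei counted, duplicates averaged, migration set against mock wells and turned into a robust z-score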. Reading the numbers: migration robust z-score: higher = faster migration into the scratch; nuclei per well: higher = more cells in the well. Active means: 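Migration changed when robust z exceeds 2 or falls below -2 and mean nuclei number is at least 3300; otherwise not called changed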. Meaning of the calls: active = migration changed; inactive = no migration change, or too few cells.
Here is one part, drawn at random, of about 18,000 reagents. About 1,030 of all reagents (5.7%) count as active. 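Inactive calls also include pools with fewer than 3300 nuclei, whose migration was not assessed.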 Raw values are not corrected between plates. Not all columns of the deposit are shown.

gene,migration robust z-score,"nuclei per well, duplicate mean",Outcome
THPO (thrombopoietin),-1.27,5038,inactive
MORN5 (MORN repeat containing 5),0.71,5106,inactive
LANCL1 (LanC like glutathione S-transferase 1),1.06,4998,inactive
LY6G5C (lymphocyte antigen 6 family member G5C),1.66,6783,inactive
ERC1 (ELKS/RAB6-interacting/CAST family member 1),-1.29,4845,inactive
UGT1A3 (UDP glucuronosyltransferase family 1 member A3),-0.68,5620,inactive
NANOS2 (nanos C2HC-type zinc finger 2),-0.88,4776,inactive
SULT6B1 (sulfotransferase family 6B member 1),-0.6,6128,inactive
OOEP (oocyte expressed protein),-1.7,4570,inactive
ARPC1A (actin related protein 2/3 complex subunit 1A),0.81,4486,inactive
"ST8SIA6 (ST8 alpha-N-acetyl-neuraminide alpha-2,8-sialyltransferase 6)",-0.02,5062,inactive

Targets above whose gene name starts with S or s (2):
gene,migration robust z-score,"nuclei per well, duplicate mean",Outcome
SULT6B1 (sulfotransferase family 6B member 1),-0.6,6128,inactive
"ST8SIA6 (ST8 alpha-N-acetyl-neuraminide alpha-2,8-sialyltransferase 6)",-0.02,5062,inactive

Next records follow.
gene,migration robust z-score,"nuclei per well, duplicate mean",Outcome
DOK1 (docking protein 1),0.14,5010,inactive
CELF3 (CUGBP Elav-like family member 3),-0.08,4884,inactive
PARVG (parvin gamma),0.32,5799,inactive
OR10V1 (olfactory receptor family 10 subfamily V member 1),-1.64,6098,inactive
ITGBL1 (integrin subunit beta like 1),-0.92,6156,inactive
SERPINB4 (serpin family B member 4),0.82,6418,inactive
POFUT2 (protein O-fucosyltransferase 2),-0.4,5704,inactive
GMPPA (GDP-mannose pyrophosphorylase A),0.03,5372,inactive
"PNPLA6 (patatin like domain 6, lysophospholipase)",0.46,5438,inactive
COA5 (cytochrome c oxidase assembly factor 5),-0.27,5152,inactive
USP40 (ubiquitin specific peptidase 40),-1.22,4202,inactive
DSG2 (desmoglein 2),0.95,6864,inactive
